Reference: PMC12866682 (2025)
Results are given in words; binding and its absence hold for the method and conditions named. For some assays here: A result given as binding can be weak or reduced; the word gives no strength. For some assays here: In cells and extracts the contact can be indirect.

By UniProt entry, the sequences of proteins in these tests, tags left out. Where a name states a change or a piece, a line headed by the entry shows the natural chain unless it says otherwise. Residues count along the entry.
UniProt Q9NZC2, residues 19-230: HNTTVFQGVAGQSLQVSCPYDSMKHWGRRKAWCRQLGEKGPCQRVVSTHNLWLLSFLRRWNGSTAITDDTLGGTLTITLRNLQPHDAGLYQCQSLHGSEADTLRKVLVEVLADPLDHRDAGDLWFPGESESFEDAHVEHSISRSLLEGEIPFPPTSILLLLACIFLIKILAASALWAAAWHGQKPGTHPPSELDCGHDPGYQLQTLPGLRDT
UniProt P08311: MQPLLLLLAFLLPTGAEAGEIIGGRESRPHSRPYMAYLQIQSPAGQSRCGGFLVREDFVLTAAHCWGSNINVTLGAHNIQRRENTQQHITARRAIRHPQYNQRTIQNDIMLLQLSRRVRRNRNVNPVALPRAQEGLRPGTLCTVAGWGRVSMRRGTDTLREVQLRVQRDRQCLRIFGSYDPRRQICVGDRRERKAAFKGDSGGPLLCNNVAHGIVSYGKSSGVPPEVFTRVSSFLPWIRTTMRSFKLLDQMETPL
UniProt P05164, residues 49-745: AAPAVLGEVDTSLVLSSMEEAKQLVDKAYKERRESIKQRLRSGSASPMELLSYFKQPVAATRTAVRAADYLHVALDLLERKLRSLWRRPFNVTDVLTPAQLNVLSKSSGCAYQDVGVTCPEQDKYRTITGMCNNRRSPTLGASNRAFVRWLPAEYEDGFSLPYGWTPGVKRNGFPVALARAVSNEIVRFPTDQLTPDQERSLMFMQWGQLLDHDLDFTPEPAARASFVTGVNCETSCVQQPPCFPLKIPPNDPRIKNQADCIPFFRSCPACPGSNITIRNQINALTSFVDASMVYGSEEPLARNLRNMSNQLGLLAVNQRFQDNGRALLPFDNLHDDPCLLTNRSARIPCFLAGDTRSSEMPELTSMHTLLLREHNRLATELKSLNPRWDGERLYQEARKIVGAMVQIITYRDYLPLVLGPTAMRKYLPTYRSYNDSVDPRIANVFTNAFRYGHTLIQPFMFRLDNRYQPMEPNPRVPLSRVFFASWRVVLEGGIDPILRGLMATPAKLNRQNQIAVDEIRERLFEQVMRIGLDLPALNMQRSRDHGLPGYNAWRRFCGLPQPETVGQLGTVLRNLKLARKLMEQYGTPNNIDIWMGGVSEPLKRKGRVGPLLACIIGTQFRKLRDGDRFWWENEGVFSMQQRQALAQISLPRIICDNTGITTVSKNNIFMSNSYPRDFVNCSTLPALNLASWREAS

Assays:
[1] = biological target: HA-tagged TREM2, WT (full length, FL) (UniProt Q9NZC2); assay: co-IP; HEK293T cells transfected with HA-tagged TREM2 and FLAG-tagged plasmids for 24 h; lysates immunoprecipitated with anti-HA beads (or anti-FLAG beads), Western blotting for HA and FLAG
[2] = biological target: Purified human TREM2 protein (human) (UniProt Q9NZC2); assay: SPR; Biacore, 25 °C; human TREM2 immobilised on a CM5 chip by amine coupling; human MPO at 31.25, 62.5, 125, 250, 500 and 1000 nM; both purified

binding [1] | binding [2] | Substance
no binding |  | FLAG-tagged CTSG (from UniProt P08311)
 | binds | Purified human MPO (from UniProt P05164 49-745) (ligand)
